Our source for the binding values is US7314747.

Sequences of proteins named here, by UniProt entry; tags and fusion partners are left off. A change or cut given only in a name is not applied to a line headed by its entry. Residues count along the entry.
UniProt P19793: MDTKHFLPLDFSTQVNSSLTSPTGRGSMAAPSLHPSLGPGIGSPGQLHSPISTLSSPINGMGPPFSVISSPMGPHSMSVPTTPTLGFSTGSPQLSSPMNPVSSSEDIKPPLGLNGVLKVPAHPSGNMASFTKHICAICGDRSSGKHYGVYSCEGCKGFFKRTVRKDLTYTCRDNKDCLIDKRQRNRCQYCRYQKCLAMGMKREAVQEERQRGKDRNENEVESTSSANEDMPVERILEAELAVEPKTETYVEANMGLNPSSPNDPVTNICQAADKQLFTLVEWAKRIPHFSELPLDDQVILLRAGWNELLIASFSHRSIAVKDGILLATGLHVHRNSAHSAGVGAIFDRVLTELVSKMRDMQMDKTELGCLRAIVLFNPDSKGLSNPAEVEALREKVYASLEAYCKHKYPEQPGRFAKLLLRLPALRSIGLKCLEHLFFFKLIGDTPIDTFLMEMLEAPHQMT
GST fusion of hRXRα LBD (aa 228-462): residues 228-462 of P19793
UniProt Q9Y618: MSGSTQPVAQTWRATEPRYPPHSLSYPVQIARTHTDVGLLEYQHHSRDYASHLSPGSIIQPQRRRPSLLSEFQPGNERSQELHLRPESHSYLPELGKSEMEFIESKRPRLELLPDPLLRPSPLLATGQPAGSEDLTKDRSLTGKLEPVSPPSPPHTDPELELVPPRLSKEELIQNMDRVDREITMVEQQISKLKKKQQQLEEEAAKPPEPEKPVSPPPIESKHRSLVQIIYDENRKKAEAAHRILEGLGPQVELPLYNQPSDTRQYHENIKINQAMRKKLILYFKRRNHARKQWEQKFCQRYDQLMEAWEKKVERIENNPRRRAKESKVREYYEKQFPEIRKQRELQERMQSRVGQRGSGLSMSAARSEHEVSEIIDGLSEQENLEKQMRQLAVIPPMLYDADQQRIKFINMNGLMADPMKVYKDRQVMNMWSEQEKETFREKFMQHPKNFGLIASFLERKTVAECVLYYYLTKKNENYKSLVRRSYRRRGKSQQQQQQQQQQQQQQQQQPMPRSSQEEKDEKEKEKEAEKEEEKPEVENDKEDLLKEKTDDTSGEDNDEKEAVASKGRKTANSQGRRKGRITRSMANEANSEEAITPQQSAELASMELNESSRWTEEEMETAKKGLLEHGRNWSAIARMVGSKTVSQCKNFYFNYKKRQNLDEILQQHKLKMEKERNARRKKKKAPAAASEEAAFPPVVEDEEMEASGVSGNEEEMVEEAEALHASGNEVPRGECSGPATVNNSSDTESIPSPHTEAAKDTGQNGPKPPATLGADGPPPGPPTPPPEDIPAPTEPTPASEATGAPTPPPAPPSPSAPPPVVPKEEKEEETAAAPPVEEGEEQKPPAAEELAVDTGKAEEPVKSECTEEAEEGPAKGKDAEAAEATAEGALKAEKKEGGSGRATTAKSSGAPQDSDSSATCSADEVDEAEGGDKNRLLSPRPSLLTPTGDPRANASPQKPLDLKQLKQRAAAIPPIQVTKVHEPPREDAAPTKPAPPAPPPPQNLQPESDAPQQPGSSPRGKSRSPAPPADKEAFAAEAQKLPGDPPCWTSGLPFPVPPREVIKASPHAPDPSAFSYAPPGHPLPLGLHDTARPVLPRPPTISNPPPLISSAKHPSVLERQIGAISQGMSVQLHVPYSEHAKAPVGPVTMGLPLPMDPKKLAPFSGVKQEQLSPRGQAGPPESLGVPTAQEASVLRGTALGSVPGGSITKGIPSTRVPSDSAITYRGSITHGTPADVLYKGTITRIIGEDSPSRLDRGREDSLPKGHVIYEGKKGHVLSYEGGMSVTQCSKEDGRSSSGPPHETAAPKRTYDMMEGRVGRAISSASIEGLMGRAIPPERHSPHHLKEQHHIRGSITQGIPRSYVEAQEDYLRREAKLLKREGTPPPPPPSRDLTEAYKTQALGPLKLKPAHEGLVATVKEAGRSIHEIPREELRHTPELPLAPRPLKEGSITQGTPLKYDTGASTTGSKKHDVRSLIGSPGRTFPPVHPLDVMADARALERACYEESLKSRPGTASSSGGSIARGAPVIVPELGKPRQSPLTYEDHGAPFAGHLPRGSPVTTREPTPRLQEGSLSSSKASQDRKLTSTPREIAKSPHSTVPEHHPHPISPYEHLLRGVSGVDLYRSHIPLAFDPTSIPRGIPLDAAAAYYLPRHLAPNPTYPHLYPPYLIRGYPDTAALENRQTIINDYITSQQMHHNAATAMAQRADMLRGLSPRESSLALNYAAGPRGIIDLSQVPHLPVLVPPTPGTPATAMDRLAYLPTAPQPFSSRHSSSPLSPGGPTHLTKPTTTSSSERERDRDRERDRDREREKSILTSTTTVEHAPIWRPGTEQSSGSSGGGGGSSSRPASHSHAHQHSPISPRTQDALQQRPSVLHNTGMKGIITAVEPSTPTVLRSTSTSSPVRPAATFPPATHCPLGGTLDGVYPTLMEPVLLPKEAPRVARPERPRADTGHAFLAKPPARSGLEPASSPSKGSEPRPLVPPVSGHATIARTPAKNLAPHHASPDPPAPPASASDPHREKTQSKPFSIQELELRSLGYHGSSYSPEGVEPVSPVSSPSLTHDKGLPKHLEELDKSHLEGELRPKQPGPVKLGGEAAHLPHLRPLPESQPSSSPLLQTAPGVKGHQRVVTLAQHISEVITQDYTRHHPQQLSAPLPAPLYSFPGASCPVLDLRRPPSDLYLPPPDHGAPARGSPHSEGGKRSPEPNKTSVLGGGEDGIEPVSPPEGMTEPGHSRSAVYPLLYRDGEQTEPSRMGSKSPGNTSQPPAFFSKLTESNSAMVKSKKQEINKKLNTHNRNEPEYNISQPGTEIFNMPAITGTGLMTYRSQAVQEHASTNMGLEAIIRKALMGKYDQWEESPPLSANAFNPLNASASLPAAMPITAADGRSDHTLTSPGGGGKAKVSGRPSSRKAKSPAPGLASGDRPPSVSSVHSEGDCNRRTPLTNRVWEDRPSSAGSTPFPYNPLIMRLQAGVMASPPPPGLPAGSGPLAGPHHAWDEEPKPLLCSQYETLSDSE

No constants are given. Whether binding was seen depends on the method and setting. Some results given as binding are weak or reduced against the parent protein; the word gives no strength.

In assay [1] the target is GST fusion of hRXRα LBD (aa 228-462) (human) (UniProt P19793). The assay is described as follows: far-western: 35S-labelled probe on blotted bacterial extract.
Assay [2] addresses GST-SMRT (GST fusion of the C-SMRT encoded by the yeast two hybrid clone) (human) (UniProt Q9Y618). Put plainly: far-western: 35S-labelled receptor on blotted GST fusion.

For the substance “SMRT (first SMRT clone; silencing mediator for retinoic acid receptor and thyroid hormone receptor) (from UniProt Q9Y618 1031-2514)”, the binding result in assay [1] was “binds”.
For “35S-RXR (from UniProt P19793 1-462) (receptor)”, the binding result in assay [2] is “binds”.
